Data as given in PubChem BioAssay AID2685 (National Center for Advancing Translational Sciences (NCATS), 2010).
Some of the results follow. Shown are side measurements of this screen, not its main read-out; they come without a call. Most of these compounds were active or inconclusive in the main read-out, so they are no random draw. The note in brackets gives the kind of curve behind each potency; many fits are weak.

Assay: qHTS Assay for Lipid Storage Modulators in Drosophila S3 Cells;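 on cell number change: cells counted by Cell Tracker Red CMTPX staining in the red channel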
Settings: BODIPY lipid droplet fluorescence, 18-24 h; for cell number change: measured here: cell count max response, cells fed with added oleic acid
Method in brief: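 Laser-scanning cytometry quantifies lipid droplet accumulation (500–530 nm total intensity; droplet/cell object ratio) in oleic acid-fed (400 uM added) Drosophila S3 cells treated with a concentration series. 20 uM Triacsin C defined 100% inhibition.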

[1] = measured here: lipid fluorescence (Fed channel) AC50, cells fed with added oleic acid
[2] = measured here: cell number channel AC50, cells fed with added oleic acid

With CC(=O)Nc1ccc(N=Cc2ccc(OCc3ccccc3)cc2)cc1 the cell number change was 9.91% and the AC50 [1] was 0.517 µM [rising, full curve, poor fit].

For CC(C)c1ccc(N(CC(=O)O)S(=O)(=O)c2cccnc2)cc1, the cell number change was 0.184% and the AC50 [1] was 6.51 µM [rising, single point].

For O=S(=O)(Nc1cccc2[nH]ncc12)c1cccs1, the cell number change was 11.8% and the AC50 [1] was 0.00461 µM [rising, full curve, poor fit].

With O=C(Nc1ccc(F)cc1)N1CCN(c2ncccn2)CC1 the cell number change was 18.7%.

With CC(C)(C(N)=O)N1CCN(c2ncc(C(F)(F)F)cc2Cl)CC1 the cell number change was 1.01% and the AC50 [1] was 2.31 µM [falling, partial curve].

In the case of COC(=O)c1ccc(Oc2cc(C)nc(NCc3ccccc3)n2)cc1, the cell number change is reported as 7.14% and the AC50 [1] is reported as 0.58 µM [falling, single point].

Cc1ccc(-n2cccc2/C=C2\C(=N)N3N=C(c4ccco4)SC3=NC2=O)cc1 showed a cell number change of -2.62%.

For COc1ccc(OC)c(C2C(C(C)=O)=C(O)C(=O)N2CCC(=O)O)c1 (stereo unspecified), the cell number change was -21.3% and the AC50 [1] was 29.1 µM [falling, single point].

For CCC(C)C(NS(=O)(=O)c1ccc(C)cc1)C(=O)Oc1ccc2c3c(c(=O)oc2c1)CCC3 (stereo unspecified), the cell number change was -2.38% and the AC50 [1] was 0.13 µM [rising, full curve, poor fit].

With Cc1nc2ccccn2c1C(=O)NC1CCCc2ccccc21 (stereo unspecified) the cell number change was -33.7%, the AC50 [2] was 23.1 µM [falling, single point] and the AC50 [1] was 16.4 µM [falling, partial curve, poor fit].

For COc1ccc(CNC(=O)C2CCCN(c3nc4ccccc4o3)C2)c(OC)c1 (stereo unspecified), the cell number change was 23.5% and the AC50 [1] was 2.06 µM [rising, partial curve].

With O=C(CNC(=O)c1ccc(Cl)c([N+](=O)[O-])c1)OC1CCCCC1=O (stereo unspecified) the cell number change was 10.7% and the AC50 [1] was 23.1 µM [falling, partial curve].

With CS(=O)(=O)c1ccc2nc(NC(=O)Nc3ccc(Cl)c(Cl)c3)sc2c1 the cell number change was -13.5%, the AC50 [2] was 6.51 µM [falling, single point] and the AC50 [1] was 5.17 µM [falling, full curve].

For Cc1ccc2nc(NS(=O)(=O)c3cn(C)nc3C)sc2c1, the cell number change was 18.9%.

With O=C(CSCc1cnn(-c2ccccc2)c1-n1cccc1)NCc1ccccn1 the cell number change was 35.2%, the AC50 [2] was 29.1 µM [rising, single point] and the AC50 [1] was 29.1 µM [rising, single point].

With CN(CC(=O)Nc1cccc(F)c1)C(=O)c1ccc(N2CCCCC2)c([N+](=O)[O-])c1 the cell number change was 19.7% and the AC50 [1] was 18.4 µM [rising, single point].

With Cc1cnc(SCCc2ccncc2)nc1C the cell number change was 106%, the AC50 [2] was 11.6 µM [rising, partial curve] and the AC50 [1] was 13 µM [rising, partial curve].

In the case of C=CCN(c1nc(C)c(Br)c(OC)n1)S(=O)(=O)c1ccc(C)cc1, the cell number change is reported as -0.263% and the AC50 [1] is reported as 29.1 µM [rising, single point].

For Cc1cccc(C)c1OCC(=O)Nn1c(COc2ccccc2)nc2ccccc2c1=O, the cell number change was 45.4%, the AC50 [2] was 9.2 µM [rising, partial curve] and the AC50 [1] was 20.6 µM [rising, partial curve].

With O=C(Nc1ccncc1)c1cn(-c2ccccc2)nc1-c1cccs1 the AC50 [2] was 1.84 µM [rising, partial curve] and the AC50 [1] was 2.06 µM [rising, partial curve].

In the case of NC(=O)c1ccccc1NC(=O)CSc1cn[nH]n1, the cell number change is reported as 12.6% and the AC50 [1] is reported as 6.51 µM [rising, single point].

For CC1CCN(C(=O)c2nc[nH]c2C(=O)N2CCC(C)CC2)CC1, the cell number change was 6.02% and the AC50 [1] was 0.0206 µM [rising, full curve, poor fit].

With CCOc1ccccc1NC(=O)NCCc1c[nH]c2ccccc12 the cell number change was -12.7% and the AC50 [1] was 16.4 µM [falling, single point].

With CCN(CC(=O)Nc1ccccc1OC)CC(=O)Nc1sccc1C#N the cell number change was 66.1%, the AC50 [2] was 0.411 µM [rising, partial curve, poor fit] and the AC50 [1] was 29.1 µM [rising, single point].

In the case of O=C(Nc1ccc(CSc2ccccc2)cc1)c1ccccc1, the cell number change is reported as -0.494% and the AC50 [1] is reported as 0.146 µM [falling, full curve, poor fit].

For COc1ccc(CC(=O)NNC(=O)c2ccoc2C)cc1OC, the cell number change was -2.3% and the AC50 [1] was 5.8 µM [falling, single point].

For CCOC(=O)N1CCN(S(=O)(=O)c2c(C)cc(C)cc2C)CC1, the cell number change was 4.41% and the AC50 [1] was 18.4 µM [falling, single point].

CCOc1ccc(NC(=O)c2ccc3[nH]c(=O)c(=O)[nH]c3c2)cc1 gave a cell number change of -7.63%.

In the case of Clc1ccc(Cl)c(-c2ccc(/C=N/c3ncn[nH]3)o2)c1, the cell number change is reported as -4.45% and the AC50 [1] is reported as 0.13 µM [falling, full curve, poor fit].

In the case of CC(=O)c1cccc(NC(=O)N(c2ccccc2)c2ccccc2)c1, the cell number change is reported as 10.9% and the AC50 [1] is reported as 1.3 µM [falling, full curve].

With O=C(NCc1ccco1)c1ccc(CS(=O)(=O)Cc2ccc(Cl)cc2)o1 the cell number change was 14.3% and the AC50 [1] was 5.17 µM [rising, partial curve].

With CCC1C/C(=C\c2cccnc2)C(=O)/C(=C/c2cccnc2)C1 (stereo unspecified) the cell number change was -6.35% and the AC50 [1] was 0.461 µM [rising, partial curve].

For Cc1ccccc1N(CC(=O)NC1CCCC1)C(=O)C1(C)CC(=O)N=C2C=CC(Cl)=CN21 (stereo unspecified), the cell number change was -26.7% and the AC50 [1] was 13 µM [falling, partial curve, poor fit].

In the case of N#CC(C#N)C(c1ccsc1)c1c(-c2ccccc2)[nH][nH]c1=O (stereo unspecified), the AC50 [2] is reported as 6.51 µM [falling, single point] and the AC50 [1] is reported as 0.58 µM [rising, single point].

For CCCCn1nnc(NC(=O)c2ccc(-c3ccccc3[N+](=O)[O-])o2)n1, the cell number change was 2.38%.

For N#C/C(=C\C1=C(N2CCOCC2)C(=C\c2ccccc2)/CC1)C(=O)Nc1ccccc1F, the cell number change was -94.4%, the AC50 [2] was 4.61 µM [falling, full curve] and the AC50 [1] was 4.61 µM [falling, full curve].

For CC1(C)NC(=O)N(c2ccc([N+](=O)[O-])c(C(F)(F)F)c2)C1=O, the cell number change was 65.8% and the AC50 [1] was 9.2 µM [rising, partial curve].
